This is one part of the list.
What follows are sequences tested against OsWRKY34 (Oryza sativa, UniProt Q0JBA9 1-250) (assay: protein-binding microarray (RPBM); PBS, 2% BSA, 51.3 ng/ul salmon testes DNA, 50 uM zinc acetate, 200 nM TF, 25 C, 1 h; high values mean tight binding). Settings: protein: recombinant; tags: N-terminal polyhistidine and DsRed monomer fusion (pET32a); label: CyDye5-dUTP incorporated in the synthesized complementary strand; 3' TTTTT single-stranded linker to array surface; dsDNA, one strand shown.
Summary of the method: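 Transcription factors were made in E. coli BL21-CodonPlus as N-terminal fusions to a polyhistidine tag and DsRed, then purified on Ni–NTA. After primer extension with Cy5-dUTP and blocking with 2% BSA, a custom Agilent array was exposed for 1 h at 25 °C to 200 nM protein in PBS, 2% BSA, salmon testes DNA and 50 µM zinc acetate. Washed arrays were scanned on an Axon 4000B, and the binding signal is per-feature fluorescence intensity in arbitrary units.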

Chains of the proteins cited; added tags and fusions are not shown.
UniProt Q0JBA9, entry or part of it: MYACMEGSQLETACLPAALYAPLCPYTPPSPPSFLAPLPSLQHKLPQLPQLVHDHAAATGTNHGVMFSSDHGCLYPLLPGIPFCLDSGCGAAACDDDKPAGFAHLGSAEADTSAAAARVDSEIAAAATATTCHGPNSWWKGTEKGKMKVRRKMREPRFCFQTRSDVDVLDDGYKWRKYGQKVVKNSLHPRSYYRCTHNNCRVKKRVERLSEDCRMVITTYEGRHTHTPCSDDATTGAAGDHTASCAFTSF

Sequence | binding signal
GTCTCTCTTTCTTCTAGCTCTCTCTCTCTCTCTCTCTCTCCGGAGTCACCTAGTGCAG | 9780 fluorescence intensity (a.u.)
AACTCCAAACACTTACATCCCGTTATAACGCACGAGTACTCGGAGTCACCTAGTGCAG | 9280 fluorescence intensity (a.u.)
CTTAGTTCTCCGCGCTATTCACTTCTGCGCCGTCGCTTTTCGGAGTCACCTAGTGCAG | 8640 fluorescence intensity (a.u.)
TTGGTTATGATGTGGGACTGCCCAGCATTTGCTCCTCAAGCGGAGTCACCTAGTGCAG | 8420 fluorescence intensity (a.u.)
GTTATCTTCTTCCCCGATGCATGCATCATCATTTCCTCGCCGGAGTCACCTAGTGCAG | 9200 fluorescence intensity (a.u.)
ATTTAGCCGCACCCTTCGTCTCTCCACCCAAACCAAAACCCGGAGTCACCTAGTGCAG | 9710 fluorescence intensity (a.u.)
GTCCAATCTTGTCACCCGGCATCCTTGATCGCTTTGGACCCGGAGTCACCTAGTGCAG | 8180 fluorescence intensity (a.u.)
TCGCCAACACCAACCTAGTCACTAGATCATCGGCTTGTCTCGGAGTCACCTAGTGCAG | 8910 fluorescence intensity (a.u.)
TCCTCATCCCTGCTTCCTCTTCTACACCTCATTTTCCGCTCGGAGTCACCTAGTGCAG | 10900 fluorescence intensity (a.u.)
AAAATCTTGACATAAACCAACACATTAGACCTTTCGTCTTCGGAGTCACCTAGTGCAG | 8090 fluorescence intensity (a.u.)
GGGTTAGGGTTGGGGCGCCCATCTCCATCTGGCGAGCAGACGGAGTCACCTAGTGCAG | 9270 fluorescence intensity (a.u.)
ATTCGTCTCACAATTTACATGCAAACTGTGCAATTGGTTTCGGAGTCACCTAGTGCAG | 8070 fluorescence intensity (a.u.)
TATATATCTGGGTGATTGGTGGTGAGTAGTTGTTCTTGCTCGGAGTCACCTAGTGCAG | 11400 fluorescence intensity (a.u.)
GCCCCTTCATGCCGATATCCGGGCTTGTCGCCTCCACACCCGGAGTCACCTAGTGCAG | 8970 fluorescence intensity (a.u.)
CGCACACGCCTTGCACGACGCACTCATGCGCACCTGCTCCCGGAGTCACCTAGTGCAG | 9670 fluorescence intensity (a.u.)
CAATTGGTTGGGTTTCTTGTGCCTACCTGTGTTTAAGTTCCGGAGTCACCTAGTGCAG | 9160 fluorescence intensity (a.u.)
ACTTTCTAGCATTACCCACATTCACATATATGTTAATAAACGGAGTCACCTAGTGCAG | 8350 fluorescence intensity (a.u.)
CCTTTAATAGGTCAAGCCTTTTCTATTTACCCCTGTTCAACGGAGTCACCTAGTGCAG | 10300 fluorescence intensity (a.u.)
CATAGTATTAGGATGTGTCATATGCCATATTGGTTTTTTTCGGAGTCACCTAGTGCAG | 9040 fluorescence intensity (a.u.)
GGCTAGTGACTGTGGGGTTCAGCTTACTAGCCACCTTTATCGGAGTCACCTAGTGCAG | 9680 fluorescence intensity (a.u.)
ATAATTGTCCTCTTGCACTCTTCATCTTGCCATGATTCAACGGAGTCACCTAGTGCAG | 11900 fluorescence intensity (a.u.)

Sequence | binding signal
ACGTCCACCACCACCTCATCCTCCACCTCCACCATTGATTCGGAGTCACCTAGTGCAG | 11700 fluorescence intensity (a.u.)
TACACCACAGTAGCTGTCATCTCCTTATTTCACATTAGCTCGGAGTCACCTAGTGCAG | 12900 fluorescence intensity (a.u.)
GATCCGCTCAAAATCGCGCATCCAAACCCTCGCCCTCCTCCGGAGTCACCTAGTGCAG | 9040 fluorescence intensity (a.u.)
CCGAAATGCAGAGATTCATATCCATCCTTTGCCGCTTTTCCGGAGTCACCTAGTGCAG | 9420 fluorescence intensity (a.u.)
GCTGCTGTTCTTCGTATTTATTGCACCGTTTTTGCTACGCCGGAGTCACCTAGTGCAG | 11600 fluorescence intensity (a.u.)
CCACACACACACACACAAAAAAAAAAACCTCACGCGCGATCGGAGTCACCTAGTGCAG | 9140 fluorescence intensity (a.u.)
GATGCGCCGAAATTGTATTGAACGTGTGTGTGTTTTTTATCGGAGTCACCTAGTGCAG | 12400 fluorescence intensity (a.u.)
GTCCACACACATGTACGTCGCGCTACGCGCCCGCGGCGCCCGGAGTCACCTAGTGCAG | 8410 fluorescence intensity (a.u.)
AATTTAGACTGTTTGGATTTCATCTTATTTGTTTTTTTTCCGGAGTCACCTAGTGCAG | 10800 fluorescence intensity (a.u.)
ATCTCGCCGCCGCTGCCGCCTTGTTCCCCTGCTCCCGCGTCGGAGTCACCTAGTGCAG | 8100 fluorescence intensity (a.u.)
CGCCGCCGCCTGTATGTCCATATGCTCCACCGTCTTCGTCCGGAGTCACCTAGTGCAG | 10500 fluorescence intensity (a.u.)
GGCCCACATATCAGTCACTACGTTCCTCTGACTTTACGTCCGGAGTCACCTAGTGCAG | 9430 fluorescence intensity (a.u.)
CATTTCTCTTCTGAAGCCTCCGGTCATCTTCAACGGACTCCGGAGTCACCTAGTGCAG | 8240 fluorescence intensity (a.u.)
CAGGGATGGTTAACGAGTATTAGAGGTTTGTGTGGGACTTCGGAGTCACCTAGTGCAG | 9420 fluorescence intensity (a.u.)
CACAGTTTCTCTCTGGCCGGTGGGTCTGCTTTATTCTGAACGGAGTCACCTAGTGCAG | 11100 fluorescence intensity (a.u.)
TCGGTCGGTACTCAGTTCTTTGCCAACTACCACTGTATAACGGAGTCACCTAGTGCAG | 8690 fluorescence intensity (a.u.)
AGTTCAGCAATCCTCTGCTTTTGTCAGTTGTAGTTCACAACGGAGTCACCTAGTGCAG | 9030 fluorescence intensity (a.u.)
CAAATATATTGCTATTGCAGTTTTCCCACATTTTGCCTTTCGGAGTCACCTAGTGCAG | 8030 fluorescence intensity (a.u.)
AAATGTATTTATTTTTTTTCTACTCCCTCCGCCCCTTAATCGGAGTCACCTAGTGCAG | 8590 fluorescence intensity (a.u.)
TTGGTGCATTTTGATGTTTTTTCTCTTGTAACTTTTATTCCGGAGTCACCTAGTGCAG | 12600 fluorescence intensity (a.u.)
ATCTTGTTCCTTTTTTACCTGCATGCTATGTTCCTATTAACGGAGTCACCTAGTGCAG | 15200 fluorescence intensity (a.u.)

Sequence | binding signal
TCCGGGCCCCGCTTAGATGTGGGCCCACCGGGTCATTGACCGGAGTCACCTAGTGCAG | 9560 fluorescence intensity (a.u.)
GCCCTACAAATCTCGCGCCGCCGCCGCTGCTCTGCTTTCTCGGAGTCACCTAGTGCAG | 13800 fluorescence intensity (a.u.)
GGAGGTTAATTCGTACTTCTACAGTAGCAGGGGTAATTTTCGGAGTCACCTAGTGCAG | 11700 fluorescence intensity (a.u.)
GGGCTCTCTGCCTCTCTCTCTCTCTTGTCGCCACCAAAAACGGAGTCACCTAGTGCAG | 9620 fluorescence intensity (a.u.)
ACTCCATCTCCTTGCTGATTATGAATTCCAGCACCCTCATCGGAGTCACCTAGTGCAG | 11000 fluorescence intensity (a.u.)
GGACCAAACTTGCATTGCTGGAACTTTTTCTTTGGCTTGTCGGAGTCACCTAGTGCAG | 9900 fluorescence intensity (a.u.)
TCGGACTCCCACAAACAGGACCCTATACACATTCGACAGCCGGAGTCACCTAGTGCAG | 8620 fluorescence intensity (a.u.)
CCATGTGTCCTCCATTCTTGTACTTAATCTCTTCTTATTTCGGAGTCACCTAGTGCAG | 11000 fluorescence intensity (a.u.)
TCCTGCGCTACTCTGCCCACCGCGCTCGCCCGTCGTCGCTCGGAGTCACCTAGTGCAG | 9200 fluorescence intensity (a.u.)
CATTGATCCACTCATCGTTTGATTCACCTGTAACTGTAACCGGAGTCACCTAGTGCAG | 11100 fluorescence intensity (a.u.)
GCTGTCTTGTCTGCAGTCTGCACTCTCTGAATTCAGAAGTCGGAGTCACCTAGTGCAG | 9430 fluorescence intensity (a.u.)
TCTTACTTTATATTTCTTATTTGGTGCCATTGATCAATACCGGAGTCACCTAGTGCAG | 11800 fluorescence intensity (a.u.)
TCTTCCCTTTGAGGCTTTCACTCCTCTCGTTATAAAAGCACGGAGTCACCTAGTGCAG | 9730 fluorescence intensity (a.u.)
TCTCTCTCTCTCTCAATCCTCTCTGGACTCGTCCGACGGCCGGAGTCACCTAGTGCAG | 8220 fluorescence intensity (a.u.)
TGAAGCTTAGTTTTGTTGGCCATTCCATTGGGAACGTTATCGGAGTCACCTAGTGCAG | 10400 fluorescence intensity (a.u.)
CTGCCTCGCCCCGCCGGCCTCCTCCCGACCTACCGCCACCCGGAGTCACCTAGTGCAG | 8390 fluorescence intensity (a.u.)
CCCTTGTCGCCGGACGAATTGAAGCTCGCCGCCGCCGCCGCGGAGTCACCTAGTGCAG | 8480 fluorescence intensity (a.u.)
TTTATTGTTGTTTTTGGGTTGGTTTGGTTTGATTCCGATGCGGAGTCACCTAGTGCAG | 9120 fluorescence intensity (a.u.)
ATTATCGATACCCTTGTACCGTGTATCCTGCATTGTCTATCGGAGTCACCTAGTGCAG | 8020 fluorescence intensity (a.u.)
TGTTTATTCTCTTCCCATTTATCGATTGTTTCTTTTAAGTCGGAGTCACCTAGTGCAG | 8920 fluorescence intensity (a.u.)
TTTCAGTTTTATCCATTACGCCTATGCTTTGTTTTCCAATCGGAGTCACCTAGTGCAG | 11800 fluorescence intensity (a.u.)

3 records picked at random from the list so far, as already listed:
Sequence | binding signal
CCCTTGTCGCCGGACGAATTGAAGCTCGCCGCCGCCGCCGCGGAGTCACCTAGTGCAG | 8480 fluorescence intensity (a.u.)
GCCCTACAAATCTCGCGCCGCCGCCGCTGCTCTGCTTTCTCGGAGTCACCTAGTGCAG | 13800 fluorescence intensity (a.u.)
ATTATCGATACCCTTGTACCGTGTATCCTGCATTGTCTATCGGAGTCACCTAGTGCAG | 8020 fluorescence intensity (a.u.)

More entries follow.

Sequence | binding signal
GCCGCTCTCTCCAGATCTGCCAGCGCTCACCGCTCCTTCGCGGAGTCACCTAGTGCAG | 9390 fluorescence intensity (a.u.)
CGCGTCGCCATCGCTATCTCCTACCGGAATCTGGAACCCTCGGAGTCACCTAGTGCAG | 8190 fluorescence intensity (a.u.)
ACTATTTCTTCATGTTACATAATTCTCCTTGTTTAAGTCCCGGAGTCACCTAGTGCAG | 8390 fluorescence intensity (a.u.)
TATGTTGACAAATTTGAGGCGGTTTGTATCTTTCACTTTCCGGAGTCACCTAGTGCAG | 10600 fluorescence intensity (a.u.)
AGGTTATTCCCCGCTTACCTATTTCTTTTTTTTTATTTTGCGGAGTCACCTAGTGCAG | 12500 fluorescence intensity (a.u.)
CTCGAGTATAAATAGAGAGGGAGGGTGTGATTTTCCGGTACGGAGTCACCTAGTGCAG | 8160 fluorescence intensity (a.u.)
GGGTGGGTGGAGACTGGAGAGTCCTCTCCGCGAGAGGCTGCGGAGTCACCTAGTGCAG | 8410 fluorescence intensity (a.u.)
TCCTTGTACCGTGCCTTCGGGATGATTGAATTCACCAATGCGGAGTCACCTAGTGCAG | 8830 fluorescence intensity (a.u.)
GTACAACCCTTTTTGCATCATTTTGCCAACCCAAACCCTACGGAGTCACCTAGTGCAG | 8330 fluorescence intensity (a.u.)
AAATGTTTGACACCGTTGATTTTTTAGCGCATGTTTGACCCGGAGTCACCTAGTGCAG | 8840 fluorescence intensity (a.u.)
TACGCAAGTACCTCACATACTTTTTATCTCGTTGTTGAACCGGAGTCACCTAGTGCAG | 8200 fluorescence intensity (a.u.)
TTTGTCTTGACGCACACTTCACTTCTGCCGCGCCATTTTTCGGAGTCACCTAGTGCAG | 10900 fluorescence intensity (a.u.)
TCATCAGATCACTAATGGTTCTAGTTCCATATGCCCTTGTCGGAGTCACCTAGTGCAG | 8680 fluorescence intensity (a.u.)
CGAAAAAAAGTCACAGCCCTCATTGACTCGCATCTTCTTCCGGAGTCACCTAGTGCAG | 8360 fluorescence intensity (a.u.)
ATCTTCTTATTCATTCCTTCATTCTCCCTAGTGTGTATAACGGAGTCACCTAGTGCAG | 8750 fluorescence intensity (a.u.)
CTGTTCCAATTGTTCAGGTGGGTTTGGCAGTTACTTGTTTCGGAGTCACCTAGTGCAG | 11400 fluorescence intensity (a.u.)
GATCATCTGTTCCACCCGCCACCCGCCACCCGCCACAATCCGGAGTCACCTAGTGCAG | 13200 fluorescence intensity (a.u.)
TGGCTCTCTCGCTCCTATGTGGCTATGTCTGTCTACCTAACGGAGTCACCTAGTGCAG | 10800 fluorescence intensity (a.u.)
CCCCATTTAAATCCGTCTCGTTTCCCGCCGCAAATCCCAGCGGAGTCACCTAGTGCAG | 8760 fluorescence intensity (a.u.)
GAATTTCCATATCCAACATTTGATCTTATTTGAGATTTTTCGGAGTCACCTAGTGCAG | 8650 fluorescence intensity (a.u.)
CTCGAGGTCTTGATTAGCTTGTACAGTTTGTCCTCGAGCTCGGAGTCACCTAGTGCAG | 8710 fluorescence intensity (a.u.)

2 entries from above in another layout:
Sequence	binding signal
TCCTGCGCTACTCTGCCCACCGCGCTCGCCCGTCGTCGCTCGGAGTCACCTAGTGCAG	9200 fluorescence intensity (a.u.)
CATTGATCCACTCATCGTTTGATTCACCTGTAACTGTAACCGGAGTCACCTAGTGCAG	11100 fluorescence intensity (a.u.)

Source: publication PMC7819943, “Rice protein-binding microarrays: a tool to detect cis-acting elements near promoter regions in rice”
